Assay results published in doi:10.1101/2022.10.04.510822 (bioRxiv, 2022).
Read-outs that look alike come from different tables or passages of the source. No constants are given. Whether binding was seen depends on the method and setting. In cells and extracts the contact can be indirect. Some results given as binding are weak or reduced against the parent protein; the word gives no strength. For some assays here: Sequences can lack the tags named with a protein.

By UniProt entry, the sequences of proteins in these tests, tags left out. Where a name states a change or a piece, a line headed by the entry shows the natural chain unless it says otherwise.
UniProt O95166, whole entry: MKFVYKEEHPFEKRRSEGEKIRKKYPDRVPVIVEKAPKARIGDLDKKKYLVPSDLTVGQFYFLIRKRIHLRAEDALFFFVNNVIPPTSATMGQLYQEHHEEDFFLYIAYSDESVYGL
UniProt Q04206, whole entry: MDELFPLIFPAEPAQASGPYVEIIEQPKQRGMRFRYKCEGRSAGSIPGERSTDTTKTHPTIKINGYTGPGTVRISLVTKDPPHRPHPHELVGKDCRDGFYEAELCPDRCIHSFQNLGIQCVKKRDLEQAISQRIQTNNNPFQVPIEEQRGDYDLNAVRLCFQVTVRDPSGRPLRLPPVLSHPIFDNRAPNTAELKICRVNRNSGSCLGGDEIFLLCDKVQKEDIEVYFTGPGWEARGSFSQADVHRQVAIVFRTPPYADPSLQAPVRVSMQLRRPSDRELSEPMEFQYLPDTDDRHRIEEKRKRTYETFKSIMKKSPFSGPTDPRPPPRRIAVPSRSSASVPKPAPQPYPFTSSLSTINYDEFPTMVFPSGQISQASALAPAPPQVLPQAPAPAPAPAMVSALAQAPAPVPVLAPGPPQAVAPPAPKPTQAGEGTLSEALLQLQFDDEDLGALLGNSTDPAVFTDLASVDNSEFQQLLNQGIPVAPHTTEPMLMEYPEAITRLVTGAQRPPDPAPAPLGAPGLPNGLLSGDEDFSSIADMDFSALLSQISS
UniProt P51532, whole entry: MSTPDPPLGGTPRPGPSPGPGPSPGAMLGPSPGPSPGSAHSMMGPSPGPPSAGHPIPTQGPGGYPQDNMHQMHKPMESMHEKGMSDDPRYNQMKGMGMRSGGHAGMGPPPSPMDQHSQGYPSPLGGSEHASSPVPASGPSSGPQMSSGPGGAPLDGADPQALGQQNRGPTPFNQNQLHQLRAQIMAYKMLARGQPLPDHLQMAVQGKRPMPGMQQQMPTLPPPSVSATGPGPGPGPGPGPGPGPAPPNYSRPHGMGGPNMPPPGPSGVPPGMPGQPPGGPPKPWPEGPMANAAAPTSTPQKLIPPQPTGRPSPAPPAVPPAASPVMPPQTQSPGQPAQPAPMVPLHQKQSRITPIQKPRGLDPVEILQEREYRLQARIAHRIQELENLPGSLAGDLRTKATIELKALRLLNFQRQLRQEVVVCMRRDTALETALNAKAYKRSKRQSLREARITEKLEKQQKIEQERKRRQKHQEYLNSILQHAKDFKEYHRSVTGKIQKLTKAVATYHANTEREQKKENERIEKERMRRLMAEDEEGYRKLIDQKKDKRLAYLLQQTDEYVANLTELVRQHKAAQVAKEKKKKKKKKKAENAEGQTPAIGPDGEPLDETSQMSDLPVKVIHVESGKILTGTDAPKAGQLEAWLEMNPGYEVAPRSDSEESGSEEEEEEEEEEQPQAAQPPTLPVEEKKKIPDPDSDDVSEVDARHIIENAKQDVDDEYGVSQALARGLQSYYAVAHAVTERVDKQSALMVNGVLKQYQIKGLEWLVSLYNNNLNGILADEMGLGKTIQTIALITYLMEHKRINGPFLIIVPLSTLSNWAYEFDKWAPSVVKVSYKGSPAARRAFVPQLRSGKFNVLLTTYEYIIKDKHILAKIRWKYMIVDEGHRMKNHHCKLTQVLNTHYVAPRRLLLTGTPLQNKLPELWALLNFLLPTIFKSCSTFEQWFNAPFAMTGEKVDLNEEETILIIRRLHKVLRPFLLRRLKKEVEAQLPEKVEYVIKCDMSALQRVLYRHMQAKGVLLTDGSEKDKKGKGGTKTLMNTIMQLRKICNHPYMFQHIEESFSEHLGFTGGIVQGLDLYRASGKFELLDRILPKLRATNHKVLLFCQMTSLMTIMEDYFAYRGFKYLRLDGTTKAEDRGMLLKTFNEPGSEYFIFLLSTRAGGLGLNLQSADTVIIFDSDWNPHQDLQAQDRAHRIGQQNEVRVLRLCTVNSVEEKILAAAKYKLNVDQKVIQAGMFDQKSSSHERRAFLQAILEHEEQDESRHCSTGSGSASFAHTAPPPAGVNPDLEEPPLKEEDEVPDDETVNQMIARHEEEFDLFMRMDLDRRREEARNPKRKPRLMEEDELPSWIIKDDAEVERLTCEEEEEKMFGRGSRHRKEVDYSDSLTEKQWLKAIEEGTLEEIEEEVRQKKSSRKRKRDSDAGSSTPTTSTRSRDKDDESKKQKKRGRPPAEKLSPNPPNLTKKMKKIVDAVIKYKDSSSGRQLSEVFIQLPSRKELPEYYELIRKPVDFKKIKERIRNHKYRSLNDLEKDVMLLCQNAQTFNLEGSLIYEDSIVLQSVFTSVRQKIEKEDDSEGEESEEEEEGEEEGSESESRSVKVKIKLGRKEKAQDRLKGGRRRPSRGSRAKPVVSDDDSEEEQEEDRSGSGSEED
UniProt P51531, whole entry: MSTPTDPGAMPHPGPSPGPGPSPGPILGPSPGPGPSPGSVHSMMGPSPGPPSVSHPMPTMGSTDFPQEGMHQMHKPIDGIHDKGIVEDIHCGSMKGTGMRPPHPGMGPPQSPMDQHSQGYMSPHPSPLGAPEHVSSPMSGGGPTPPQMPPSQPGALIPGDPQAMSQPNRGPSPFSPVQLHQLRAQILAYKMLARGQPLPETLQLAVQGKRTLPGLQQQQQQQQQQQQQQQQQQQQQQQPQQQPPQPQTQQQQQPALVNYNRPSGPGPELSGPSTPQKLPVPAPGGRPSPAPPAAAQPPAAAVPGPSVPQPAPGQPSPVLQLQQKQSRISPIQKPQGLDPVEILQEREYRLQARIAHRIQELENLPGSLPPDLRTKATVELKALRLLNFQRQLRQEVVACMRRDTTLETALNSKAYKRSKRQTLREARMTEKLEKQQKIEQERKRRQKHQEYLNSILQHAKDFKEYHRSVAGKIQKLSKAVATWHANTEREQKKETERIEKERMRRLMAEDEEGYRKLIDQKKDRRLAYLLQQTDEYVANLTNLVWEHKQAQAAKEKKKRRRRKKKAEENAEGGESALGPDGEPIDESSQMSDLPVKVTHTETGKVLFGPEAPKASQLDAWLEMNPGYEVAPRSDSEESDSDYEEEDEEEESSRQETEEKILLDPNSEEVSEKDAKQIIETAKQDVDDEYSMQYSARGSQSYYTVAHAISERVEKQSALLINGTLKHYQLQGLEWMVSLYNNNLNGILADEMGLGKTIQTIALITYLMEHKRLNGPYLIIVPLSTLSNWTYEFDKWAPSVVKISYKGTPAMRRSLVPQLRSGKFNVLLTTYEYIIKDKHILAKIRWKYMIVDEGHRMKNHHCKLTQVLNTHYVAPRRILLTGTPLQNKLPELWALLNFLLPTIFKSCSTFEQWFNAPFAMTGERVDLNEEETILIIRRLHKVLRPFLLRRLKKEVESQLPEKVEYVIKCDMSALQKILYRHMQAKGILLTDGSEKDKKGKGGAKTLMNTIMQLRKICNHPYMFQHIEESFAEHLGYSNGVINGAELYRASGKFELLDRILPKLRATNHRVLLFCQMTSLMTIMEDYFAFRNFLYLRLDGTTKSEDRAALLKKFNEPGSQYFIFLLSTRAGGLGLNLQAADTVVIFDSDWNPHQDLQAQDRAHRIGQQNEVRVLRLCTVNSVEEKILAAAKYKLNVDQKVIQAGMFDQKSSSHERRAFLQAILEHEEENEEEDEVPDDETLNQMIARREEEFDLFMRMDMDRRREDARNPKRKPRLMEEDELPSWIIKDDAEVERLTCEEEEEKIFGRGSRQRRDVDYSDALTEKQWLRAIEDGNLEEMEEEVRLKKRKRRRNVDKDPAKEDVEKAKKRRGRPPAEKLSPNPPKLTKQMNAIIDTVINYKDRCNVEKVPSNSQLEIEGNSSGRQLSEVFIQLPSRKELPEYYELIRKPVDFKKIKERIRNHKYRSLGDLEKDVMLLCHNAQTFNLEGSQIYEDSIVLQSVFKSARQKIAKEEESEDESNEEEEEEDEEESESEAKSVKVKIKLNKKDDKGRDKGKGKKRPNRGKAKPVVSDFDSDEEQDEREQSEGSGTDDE

Tests used:
Experiment in all cases: co-IP
[1] = target: GABARAP, endogenous in HEK293T (human (endogenous in HEK293T)) (UniProt O95166)
[2] = target: T1, HA-WSTF wild-type (HEK293T) (UniProt Q9UIG0)
T1 sequence: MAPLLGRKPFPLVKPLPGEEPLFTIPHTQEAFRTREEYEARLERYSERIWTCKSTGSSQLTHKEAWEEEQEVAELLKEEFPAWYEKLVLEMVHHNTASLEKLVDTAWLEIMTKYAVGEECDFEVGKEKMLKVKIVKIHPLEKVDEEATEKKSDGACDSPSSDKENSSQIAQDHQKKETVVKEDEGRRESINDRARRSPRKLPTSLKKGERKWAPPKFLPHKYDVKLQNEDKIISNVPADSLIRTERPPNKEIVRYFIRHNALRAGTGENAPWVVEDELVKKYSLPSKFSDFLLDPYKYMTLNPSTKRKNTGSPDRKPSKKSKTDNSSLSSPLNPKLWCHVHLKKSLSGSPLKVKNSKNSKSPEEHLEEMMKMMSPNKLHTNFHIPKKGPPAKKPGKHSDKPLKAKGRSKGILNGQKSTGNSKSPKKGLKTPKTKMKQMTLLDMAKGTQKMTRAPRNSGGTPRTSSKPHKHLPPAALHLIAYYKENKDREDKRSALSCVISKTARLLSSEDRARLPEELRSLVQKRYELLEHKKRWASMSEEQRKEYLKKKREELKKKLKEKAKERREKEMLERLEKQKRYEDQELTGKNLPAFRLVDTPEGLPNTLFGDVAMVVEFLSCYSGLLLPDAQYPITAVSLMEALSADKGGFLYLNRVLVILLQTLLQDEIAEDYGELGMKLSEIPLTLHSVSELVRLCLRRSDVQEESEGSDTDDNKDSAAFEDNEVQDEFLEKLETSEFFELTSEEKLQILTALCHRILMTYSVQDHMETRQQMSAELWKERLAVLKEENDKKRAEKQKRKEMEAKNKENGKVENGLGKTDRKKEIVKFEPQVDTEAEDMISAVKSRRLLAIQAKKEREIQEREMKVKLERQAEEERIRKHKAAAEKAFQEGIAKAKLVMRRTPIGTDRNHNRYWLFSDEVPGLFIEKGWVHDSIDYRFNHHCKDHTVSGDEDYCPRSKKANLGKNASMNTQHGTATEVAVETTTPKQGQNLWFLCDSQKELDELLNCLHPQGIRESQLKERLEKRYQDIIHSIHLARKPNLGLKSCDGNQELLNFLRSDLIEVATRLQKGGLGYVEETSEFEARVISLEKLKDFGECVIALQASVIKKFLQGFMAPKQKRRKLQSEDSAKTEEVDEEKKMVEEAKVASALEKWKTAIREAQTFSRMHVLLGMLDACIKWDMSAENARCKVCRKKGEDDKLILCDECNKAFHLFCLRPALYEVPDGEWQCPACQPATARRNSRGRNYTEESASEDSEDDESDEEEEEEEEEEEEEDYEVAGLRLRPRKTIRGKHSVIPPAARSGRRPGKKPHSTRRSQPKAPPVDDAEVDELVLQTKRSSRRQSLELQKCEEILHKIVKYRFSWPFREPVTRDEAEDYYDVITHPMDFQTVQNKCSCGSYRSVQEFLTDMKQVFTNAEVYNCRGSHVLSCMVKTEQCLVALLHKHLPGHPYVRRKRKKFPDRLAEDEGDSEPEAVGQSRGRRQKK

[3] = target: GABARAP, endogenous in HEK293T (human (endogenous in HEK293T)) (UniProt O95166); remark: listed apart in the source
[4] = target: p65, endogenous in IMR90 (human (endogenous in IMR90)) (UniProt Q04206)

## BRG1, endogenous in HEK293T (from UniProt P51532 1-1647)
[1]
  binding: binds weakly

## BRM, endogenous in HEK293T (from UniProt P51531 1-1590)
[1]
  binding: binds weakly

## HA-WSTF L476A (HEK293T) (from UniProt Q9UIG0 1-1483)
[1]
  binding: no binding

## HA-WSTF △474-483 (HEK293T) (from UniProt Q9UIG0 1-1483)
[1]
  binding: no binding

## T7-p65 3KR (T7-RelA(3KR)) (from UniProt Q04206 1-551)
[2]
  binding: binds

## T7-p65 wild-type (T7-RelA) (from UniProt Q04206 1-551)
[2]
  binding: binds

B1: HA-WSTF wild-type (HEK293T) (protein, UniProt Q9UIG0 1-1483)
chain: MAPLLGRKPFPLVKPLPGEEPLFTIPHTQEAFRTREEYEARLERYSERIWTCKSTGSSQLTHKEAWEEEQEVAELLKEEFPAWYEKLVLEMVHHNTASLEKLVDTAWLEIMTKYAVGEECDFEVGKEKMLKVKIVKIHPLEKVDEEATEKKSDGACDSPSSDKENSSQIAQDHQKKETVVKEDEGRRESINDRARRSPRKLPTSLKKGERKWAPPKFLPHKYDVKLQNEDKIISNVPADSLIRTERPPNKEIVRYFIRHNALRAGTGENAPWVVEDELVKKYSLPSKFSDFLLDPYKYMTLNPSTKRKNTGSPDRKPSKKSKTDNSSLSSPLNPKLWCHVHLKKSLSGSPLKVKNSKNSKSPEEHLEEMMKMMSPNKLHTNFHIPKKGPPAKKPGKHSDKPLKAKGRSKGILNGQKSTGNSKSPKKGLKTPKTKMKQMTLLDMAKGTQKMTRAPRNSGGTPRTSSKPHKHLPPAALHLIAYYKENKDREDKRSALSCVISKTARLLSSEDRARLPEELRSLVQKRYELLEHKKRWASMSEEQRKEYLKKKREELKKKLKEKAKERREKEMLERLEKQKRYEDQELTGKNLPAFRLVDTPEGLPNTLFGDVAMVVEFLSCYSGLLLPDAQYPITAVSLMEALSADKGGFLYLNRVLVILLQTLLQDEIAEDYGELGMKLSEIPLTLHSVSELVRLCLRRSDVQEESEGSDTDDNKDSAAFEDNEVQDEFLEKLETSEFFELTSEEKLQILTALCHRILMTYSVQDHMETRQQMSAELWKERLAVLKEENDKKRAEKQKRKEMEAKNKENGKVENGLGKTDRKKEIVKFEPQVDTEAEDMISAVKSRRLLAIQAKKEREIQEREMKVKLERQAEEERIRKHKAAAEKAFQEGIAKAKLVMRRTPIGTDRNHNRYWLFSDEVPGLFIEKGWVHDSIDYRFNHHCKDHTVSGDEDYCPRSKKANLGKNASMNTQHGTATEVAVETTTPKQGQNLWFLCDSQKELDELLNCLHPQGIRESQLKERLEKRYQDIIHSIHLARKPNLGLKSCDGNQELLNFLRSDLIEVATRLQKGGLGYVEETSEFEARVISLEKLKDFGECVIALQASVIKKFLQGFMAPKQKRRKLQSEDSAKTEEVDEEKKMVEEAKVASALEKWKTAIREAQTFSRMHVLLGMLDACIKWDMSAENARCKVCRKKGEDDKLILCDECNKAFHLFCLRPALYEVPDGEWQCPACQPATARRNSRGRNYTEESASEDSEDDESDEEEEEEEEEEEEEDYEVAGLRLRPRKTIRGKHSVIPPAARSGRRPGKKPHSTRRSQPKAPPVDDAEVDELVLQTKRSSRRQSLELQKCEEILHKIVKYRFSWPFREPVTRDEAEDYYDVITHPMDFQTVQNKCSCGSYRSVQEFLTDMKQVFTNAEVYNCRGSHVLSCMVKTEQCLVALLHKHLPGHPYVRRKRKKFPDRLAEDEGDSEPEAVGQSRGRRQKK
[3]
  binding: binds

B2: WSTF, endogenous in IMR90 (protein, UniProt Q9UIG0 1-1483)
chain: MAPLLGRKPFPLVKPLPGEEPLFTIPHTQEAFRTREEYEARLERYSERIWTCKSTGSSQLTHKEAWEEEQEVAELLKEEFPAWYEKLVLEMVHHNTASLEKLVDTAWLEIMTKYAVGEECDFEVGKEKMLKVKIVKIHPLEKVDEEATEKKSDGACDSPSSDKENSSQIAQDHQKKETVVKEDEGRRESINDRARRSPRKLPTSLKKGERKWAPPKFLPHKYDVKLQNEDKIISNVPADSLIRTERPPNKEIVRYFIRHNALRAGTGENAPWVVEDELVKKYSLPSKFSDFLLDPYKYMTLNPSTKRKNTGSPDRKPSKKSKTDNSSLSSPLNPKLWCHVHLKKSLSGSPLKVKNSKNSKSPEEHLEEMMKMMSPNKLHTNFHIPKKGPPAKKPGKHSDKPLKAKGRSKGILNGQKSTGNSKSPKKGLKTPKTKMKQMTLLDMAKGTQKMTRAPRNSGGTPRTSSKPHKHLPPAALHLIAYYKENKDREDKRSALSCVISKTARLLSSEDRARLPEELRSLVQKRYELLEHKKRWASMSEEQRKEYLKKKREELKKKLKEKAKERREKEMLERLEKQKRYEDQELTGKNLPAFRLVDTPEGLPNTLFGDVAMVVEFLSCYSGLLLPDAQYPITAVSLMEALSADKGGFLYLNRVLVILLQTLLQDEIAEDYGELGMKLSEIPLTLHSVSELVRLCLRRSDVQEESEGSDTDDNKDSAAFEDNEVQDEFLEKLETSEFFELTSEEKLQILTALCHRILMTYSVQDHMETRQQMSAELWKERLAVLKEENDKKRAEKQKRKEMEAKNKENGKVENGLGKTDRKKEIVKFEPQVDTEAEDMISAVKSRRLLAIQAKKEREIQEREMKVKLERQAEEERIRKHKAAAEKAFQEGIAKAKLVMRRTPIGTDRNHNRYWLFSDEVPGLFIEKGWVHDSIDYRFNHHCKDHTVSGDEDYCPRSKKANLGKNASMNTQHGTATEVAVETTTPKQGQNLWFLCDSQKELDELLNCLHPQGIRESQLKERLEKRYQDIIHSIHLARKPNLGLKSCDGNQELLNFLRSDLIEVATRLQKGGLGYVEETSEFEARVISLEKLKDFGECVIALQASVIKKFLQGFMAPKQKRRKLQSEDSAKTEEVDEEKKMVEEAKVASALEKWKTAIREAQTFSRMHVLLGMLDACIKWDMSAENARCKVCRKKGEDDKLILCDECNKAFHLFCLRPALYEVPDGEWQCPACQPATARRNSRGRNYTEESASEDSEDDESDEEEEEEEEEEEEEDYEVAGLRLRPRKTIRGKHSVIPPAARSGRRPGKKPHSTRRSQPKAPPVDDAEVDELVLQTKRSSRRQSLELQKCEEILHKIVKYRFSWPFREPVTRDEAEDYYDVITHPMDFQTVQNKCSCGSYRSVQEFLTDMKQVFTNAEVYNCRGSHVLSCMVKTEQCLVALLHKHLPGHPYVRRKRKKFPDRLAEDEGDSEPEAVGQSRGRRQKK
[4]
  binding: binds
